Paper PMC5472039
Results are given in words; binding and its absence hold for the method and conditions named. Binding seen in cells or lysates may run through a third protein. Some binding calls cover weakened binding; strength is not graded here. Blank lines part the entries; values can stand above or below the binder they belong to.

Sequences of proteins named here, by UniProt entry; tags and fusion partners are left off. Residues count along the entry.
UniProt P05532, residues 25-979: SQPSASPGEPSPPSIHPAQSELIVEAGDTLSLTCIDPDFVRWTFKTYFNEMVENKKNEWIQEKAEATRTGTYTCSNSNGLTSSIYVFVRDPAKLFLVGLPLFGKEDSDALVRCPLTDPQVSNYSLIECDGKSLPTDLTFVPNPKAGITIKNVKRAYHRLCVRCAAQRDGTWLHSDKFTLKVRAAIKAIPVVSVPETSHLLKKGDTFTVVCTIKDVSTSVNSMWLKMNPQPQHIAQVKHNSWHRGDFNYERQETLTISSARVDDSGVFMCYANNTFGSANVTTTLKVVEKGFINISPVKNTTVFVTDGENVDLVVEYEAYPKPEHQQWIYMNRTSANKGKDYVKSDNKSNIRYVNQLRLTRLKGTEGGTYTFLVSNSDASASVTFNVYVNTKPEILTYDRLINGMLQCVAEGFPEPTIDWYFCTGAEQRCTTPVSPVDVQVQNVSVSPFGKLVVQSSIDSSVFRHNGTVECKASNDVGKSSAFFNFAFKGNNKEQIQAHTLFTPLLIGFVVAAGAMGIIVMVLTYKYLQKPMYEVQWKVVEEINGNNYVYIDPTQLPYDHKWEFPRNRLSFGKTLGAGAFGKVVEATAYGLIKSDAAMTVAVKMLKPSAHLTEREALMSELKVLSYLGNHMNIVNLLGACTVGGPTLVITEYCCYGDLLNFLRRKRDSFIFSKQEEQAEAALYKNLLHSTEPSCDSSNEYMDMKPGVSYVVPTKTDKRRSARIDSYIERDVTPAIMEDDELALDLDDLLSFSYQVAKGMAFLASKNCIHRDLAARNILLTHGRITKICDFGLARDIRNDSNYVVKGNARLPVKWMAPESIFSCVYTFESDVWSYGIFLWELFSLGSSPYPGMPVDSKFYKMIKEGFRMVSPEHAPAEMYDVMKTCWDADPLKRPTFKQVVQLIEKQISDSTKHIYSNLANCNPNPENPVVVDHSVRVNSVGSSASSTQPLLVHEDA

How the values were obtained:
[1] = biological target: c-Kit receptor tyrosine kinase (mouse (endogenous in primary aortic SMC)) (UniProt P05532); assay: co-IP; ~200 µg lysate (RIPA buffer) of primary mouse aortic SMC incubated at 4 °C for 4 h with 1 µg anti-c-Kit or anti-TAK1 antibody and Protein A/G PLUS-Agarose; beads washed with cold RIPA buffer; Western blot
[2] = biological target: T1, TGFβ-activated kinase 1 (TAK1) (mouse (endogenous in primary aortic SMC)) (UniProt Q62073); assay: as above
T1 sequence: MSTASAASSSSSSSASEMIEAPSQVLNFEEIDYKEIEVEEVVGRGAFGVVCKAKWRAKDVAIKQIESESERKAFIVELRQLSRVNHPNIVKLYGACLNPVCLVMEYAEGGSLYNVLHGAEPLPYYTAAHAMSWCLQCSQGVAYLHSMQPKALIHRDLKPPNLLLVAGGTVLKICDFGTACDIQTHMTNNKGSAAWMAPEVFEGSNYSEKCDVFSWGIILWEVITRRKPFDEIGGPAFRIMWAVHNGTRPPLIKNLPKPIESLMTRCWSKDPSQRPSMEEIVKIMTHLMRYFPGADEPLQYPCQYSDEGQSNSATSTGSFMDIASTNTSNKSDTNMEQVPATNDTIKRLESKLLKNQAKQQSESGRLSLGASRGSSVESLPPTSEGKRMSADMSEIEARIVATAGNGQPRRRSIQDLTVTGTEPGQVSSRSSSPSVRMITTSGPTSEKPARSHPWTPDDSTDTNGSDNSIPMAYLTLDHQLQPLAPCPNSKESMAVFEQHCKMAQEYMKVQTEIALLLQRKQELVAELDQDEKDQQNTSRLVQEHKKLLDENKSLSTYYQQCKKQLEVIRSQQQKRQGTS

- binding [1]: binds
B1: TGFβ-activated kinase 1 (TAK1) (enzyme, UniProt Q62073 1-579)
chain: T1 sequence

- binding [2]: binds
- binding [1]: binds
B2: Nemo-like kinase (NLK) (enzyme, UniProt O54949 1-527)
chain: MSLCGTRANAKMMAAYNGGTSAAAAGHHHHHHHHLPHLPPPHLHHHHHPQHHLHPGSAAAVHPVQQHTSSAAAAAAAAAAAAAMLNPGQQQPYFPSPAPGQAPGPAAAAPAQVQAAAAATVKAHHHQHSHHPQQQLDIEPDRPIGYGAFGVVWSVTDPRDGKRVALKKMPNVFQNLVSCKRVFRELKMLCFFKHDNVLSALDILQPPHIDYFEEIYVVTELMQSDLHKIIVSPQPLSSDHVKVFLYQILRGLKYLHSAGILHRDIKPGNLLVNSNCVLKICDFGLARVEELDESRHMTQEVVTQYYRAPEILMGSRHYSNAIDIWSVGCIFAELLGRRILFQAQSPIQQLDLITDLLGTPSLEAMRTACEGAKAHILRGPHKQPSLPVLYTLSSQATHEAVHLLCRMLVFDPSKRISAKDALAHPYLDEGRLRYHTCMCKCCFSTSTGRVYTSDFEPVTNPKFDDTFEKNLSSVRQVKEIIHQFILEQQKGNRVPLCINPQSAAFKSFISSTVAQPSEMPPSPLVWE
